In the supplement of paper PMC10849652:
The other results are listed elsewhere or left out.

Sequences of proteins named here, by UniProt entry; tags and fusion partners are left off. A change or cut given only in a name is not applied to a line headed by its entry.
UniProt O94888: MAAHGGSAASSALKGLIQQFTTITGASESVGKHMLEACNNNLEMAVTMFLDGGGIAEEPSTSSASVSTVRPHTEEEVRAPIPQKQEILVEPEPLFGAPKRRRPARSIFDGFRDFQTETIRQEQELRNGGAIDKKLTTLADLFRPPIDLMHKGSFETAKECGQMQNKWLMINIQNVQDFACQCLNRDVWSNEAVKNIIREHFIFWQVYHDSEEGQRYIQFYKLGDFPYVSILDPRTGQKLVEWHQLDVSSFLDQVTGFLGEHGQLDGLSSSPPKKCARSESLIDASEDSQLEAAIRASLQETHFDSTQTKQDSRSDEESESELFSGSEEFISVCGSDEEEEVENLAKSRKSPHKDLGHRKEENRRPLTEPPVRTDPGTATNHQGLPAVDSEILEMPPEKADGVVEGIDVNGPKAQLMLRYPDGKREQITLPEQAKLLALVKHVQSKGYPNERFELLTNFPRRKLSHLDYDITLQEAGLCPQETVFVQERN
UniProt Q9UPT9: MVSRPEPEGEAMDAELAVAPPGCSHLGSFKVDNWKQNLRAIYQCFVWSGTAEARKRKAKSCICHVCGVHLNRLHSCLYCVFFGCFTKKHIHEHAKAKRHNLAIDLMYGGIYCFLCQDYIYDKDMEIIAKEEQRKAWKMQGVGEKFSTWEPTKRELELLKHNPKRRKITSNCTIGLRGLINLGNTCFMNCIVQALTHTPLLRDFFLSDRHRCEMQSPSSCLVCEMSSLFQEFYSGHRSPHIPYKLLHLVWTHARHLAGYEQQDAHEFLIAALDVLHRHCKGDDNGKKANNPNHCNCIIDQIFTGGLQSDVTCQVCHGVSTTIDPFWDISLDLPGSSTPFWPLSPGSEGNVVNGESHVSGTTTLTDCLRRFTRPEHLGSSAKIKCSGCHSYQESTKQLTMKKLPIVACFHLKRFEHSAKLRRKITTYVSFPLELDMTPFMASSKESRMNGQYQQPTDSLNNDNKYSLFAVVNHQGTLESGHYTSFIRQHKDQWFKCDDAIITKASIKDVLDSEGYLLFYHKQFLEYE
UniProt Q16880: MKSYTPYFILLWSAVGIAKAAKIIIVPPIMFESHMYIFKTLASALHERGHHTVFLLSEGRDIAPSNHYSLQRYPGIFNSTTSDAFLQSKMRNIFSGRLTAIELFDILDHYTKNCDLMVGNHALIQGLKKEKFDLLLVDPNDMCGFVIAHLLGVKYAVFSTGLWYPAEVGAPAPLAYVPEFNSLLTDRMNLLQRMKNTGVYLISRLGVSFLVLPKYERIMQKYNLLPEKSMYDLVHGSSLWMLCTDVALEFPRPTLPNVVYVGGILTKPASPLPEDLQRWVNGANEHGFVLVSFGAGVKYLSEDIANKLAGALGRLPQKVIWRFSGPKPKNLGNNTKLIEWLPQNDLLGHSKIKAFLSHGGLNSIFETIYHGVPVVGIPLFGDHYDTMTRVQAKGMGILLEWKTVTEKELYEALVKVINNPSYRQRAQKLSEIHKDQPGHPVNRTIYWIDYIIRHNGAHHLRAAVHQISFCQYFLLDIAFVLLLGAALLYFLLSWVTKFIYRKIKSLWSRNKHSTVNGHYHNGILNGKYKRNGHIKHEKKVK
UniProt Q8TED0: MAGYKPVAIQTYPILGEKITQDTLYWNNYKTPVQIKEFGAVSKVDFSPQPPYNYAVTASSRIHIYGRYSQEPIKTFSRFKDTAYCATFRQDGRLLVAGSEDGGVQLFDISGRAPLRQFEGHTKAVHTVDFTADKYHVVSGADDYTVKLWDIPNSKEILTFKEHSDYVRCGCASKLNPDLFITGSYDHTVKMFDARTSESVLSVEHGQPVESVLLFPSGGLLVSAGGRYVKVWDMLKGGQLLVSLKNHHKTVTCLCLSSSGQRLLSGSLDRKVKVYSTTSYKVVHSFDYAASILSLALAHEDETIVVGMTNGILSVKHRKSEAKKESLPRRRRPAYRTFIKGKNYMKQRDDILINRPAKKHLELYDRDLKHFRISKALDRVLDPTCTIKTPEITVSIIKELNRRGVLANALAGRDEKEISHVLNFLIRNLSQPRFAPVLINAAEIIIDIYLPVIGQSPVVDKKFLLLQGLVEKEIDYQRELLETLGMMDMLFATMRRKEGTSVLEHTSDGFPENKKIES
UniProt Q9NVA1: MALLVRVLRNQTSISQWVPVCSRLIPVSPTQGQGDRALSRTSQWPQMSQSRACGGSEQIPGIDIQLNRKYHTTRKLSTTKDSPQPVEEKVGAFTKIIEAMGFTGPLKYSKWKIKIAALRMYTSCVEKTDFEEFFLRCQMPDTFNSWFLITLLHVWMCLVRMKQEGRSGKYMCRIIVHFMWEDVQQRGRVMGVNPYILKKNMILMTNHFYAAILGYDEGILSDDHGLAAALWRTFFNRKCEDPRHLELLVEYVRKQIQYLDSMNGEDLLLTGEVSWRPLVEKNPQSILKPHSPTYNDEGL
UniProt Q9NWZ5: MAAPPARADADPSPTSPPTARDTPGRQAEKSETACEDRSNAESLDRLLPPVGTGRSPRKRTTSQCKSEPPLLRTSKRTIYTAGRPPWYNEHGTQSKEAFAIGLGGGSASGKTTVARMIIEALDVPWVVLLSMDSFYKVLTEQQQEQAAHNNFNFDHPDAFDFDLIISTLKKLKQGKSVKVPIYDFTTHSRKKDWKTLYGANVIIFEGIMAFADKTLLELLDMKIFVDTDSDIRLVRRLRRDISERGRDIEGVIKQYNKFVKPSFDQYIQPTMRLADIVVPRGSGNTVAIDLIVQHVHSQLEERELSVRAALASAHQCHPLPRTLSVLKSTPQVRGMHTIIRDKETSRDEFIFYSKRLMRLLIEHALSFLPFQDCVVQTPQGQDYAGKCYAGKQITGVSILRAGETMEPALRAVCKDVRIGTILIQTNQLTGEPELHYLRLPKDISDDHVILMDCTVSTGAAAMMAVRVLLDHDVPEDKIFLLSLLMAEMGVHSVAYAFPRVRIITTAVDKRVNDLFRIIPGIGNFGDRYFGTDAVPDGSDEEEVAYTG
UniProt Q96BW1: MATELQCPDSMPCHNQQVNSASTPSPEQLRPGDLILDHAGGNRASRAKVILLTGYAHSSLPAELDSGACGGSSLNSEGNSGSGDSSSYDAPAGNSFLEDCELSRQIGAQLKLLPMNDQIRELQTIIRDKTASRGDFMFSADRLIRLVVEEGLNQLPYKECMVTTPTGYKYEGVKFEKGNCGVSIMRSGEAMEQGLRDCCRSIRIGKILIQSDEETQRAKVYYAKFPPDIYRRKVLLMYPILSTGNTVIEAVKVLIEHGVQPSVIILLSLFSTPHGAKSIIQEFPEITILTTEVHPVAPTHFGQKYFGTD
UniProt Q9UHD9, whole entry, looked up: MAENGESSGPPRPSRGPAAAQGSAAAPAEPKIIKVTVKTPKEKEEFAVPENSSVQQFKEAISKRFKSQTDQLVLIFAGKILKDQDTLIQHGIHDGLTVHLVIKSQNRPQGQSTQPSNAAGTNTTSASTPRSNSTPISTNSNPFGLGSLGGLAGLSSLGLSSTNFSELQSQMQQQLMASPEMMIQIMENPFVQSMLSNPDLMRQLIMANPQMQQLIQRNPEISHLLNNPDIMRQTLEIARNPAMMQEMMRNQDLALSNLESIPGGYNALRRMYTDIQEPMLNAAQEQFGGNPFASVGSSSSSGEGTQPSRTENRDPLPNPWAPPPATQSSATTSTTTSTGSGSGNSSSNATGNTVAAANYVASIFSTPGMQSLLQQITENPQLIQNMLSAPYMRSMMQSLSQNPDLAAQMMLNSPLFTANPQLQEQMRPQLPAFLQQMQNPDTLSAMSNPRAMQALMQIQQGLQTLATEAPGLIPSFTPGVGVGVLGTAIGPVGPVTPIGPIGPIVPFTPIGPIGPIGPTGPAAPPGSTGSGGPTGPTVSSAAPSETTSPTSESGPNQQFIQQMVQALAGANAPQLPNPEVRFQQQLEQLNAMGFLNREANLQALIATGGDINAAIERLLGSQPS
UniProt Q93009, whole entry, looked up: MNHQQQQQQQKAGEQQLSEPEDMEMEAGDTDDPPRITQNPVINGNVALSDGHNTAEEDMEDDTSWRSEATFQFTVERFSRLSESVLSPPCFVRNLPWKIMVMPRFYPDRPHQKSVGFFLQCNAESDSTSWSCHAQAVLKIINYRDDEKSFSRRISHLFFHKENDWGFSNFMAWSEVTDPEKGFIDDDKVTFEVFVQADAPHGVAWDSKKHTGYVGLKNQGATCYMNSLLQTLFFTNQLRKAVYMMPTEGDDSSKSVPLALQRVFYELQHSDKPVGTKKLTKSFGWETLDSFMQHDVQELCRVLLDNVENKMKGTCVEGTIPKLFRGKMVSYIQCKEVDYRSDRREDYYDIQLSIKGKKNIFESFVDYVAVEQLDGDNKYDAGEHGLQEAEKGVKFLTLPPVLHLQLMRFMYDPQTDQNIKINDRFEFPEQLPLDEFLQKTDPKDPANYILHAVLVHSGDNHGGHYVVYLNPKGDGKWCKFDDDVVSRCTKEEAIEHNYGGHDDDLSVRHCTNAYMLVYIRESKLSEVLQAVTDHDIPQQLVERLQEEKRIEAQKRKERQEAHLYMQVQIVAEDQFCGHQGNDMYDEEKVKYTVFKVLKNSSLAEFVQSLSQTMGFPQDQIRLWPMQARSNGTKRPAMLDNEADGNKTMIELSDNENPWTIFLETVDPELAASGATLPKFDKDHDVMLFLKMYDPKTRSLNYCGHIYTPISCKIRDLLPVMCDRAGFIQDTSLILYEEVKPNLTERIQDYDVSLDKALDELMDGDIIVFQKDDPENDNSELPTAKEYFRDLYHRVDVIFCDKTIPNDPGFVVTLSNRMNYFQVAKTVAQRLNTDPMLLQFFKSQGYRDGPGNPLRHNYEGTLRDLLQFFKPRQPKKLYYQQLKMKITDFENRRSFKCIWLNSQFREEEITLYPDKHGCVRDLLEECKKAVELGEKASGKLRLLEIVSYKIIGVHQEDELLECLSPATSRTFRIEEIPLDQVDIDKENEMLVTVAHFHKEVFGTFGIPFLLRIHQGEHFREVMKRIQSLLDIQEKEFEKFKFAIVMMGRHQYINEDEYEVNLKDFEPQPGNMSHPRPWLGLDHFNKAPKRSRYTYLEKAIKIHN
UniProt P61758, whole entry, looked up: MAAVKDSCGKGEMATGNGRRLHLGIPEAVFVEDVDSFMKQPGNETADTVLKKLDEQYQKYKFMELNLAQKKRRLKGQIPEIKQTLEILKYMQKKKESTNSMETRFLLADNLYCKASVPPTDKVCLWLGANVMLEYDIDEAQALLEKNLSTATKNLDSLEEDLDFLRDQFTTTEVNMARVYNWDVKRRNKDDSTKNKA
UniProt Q8WVY7: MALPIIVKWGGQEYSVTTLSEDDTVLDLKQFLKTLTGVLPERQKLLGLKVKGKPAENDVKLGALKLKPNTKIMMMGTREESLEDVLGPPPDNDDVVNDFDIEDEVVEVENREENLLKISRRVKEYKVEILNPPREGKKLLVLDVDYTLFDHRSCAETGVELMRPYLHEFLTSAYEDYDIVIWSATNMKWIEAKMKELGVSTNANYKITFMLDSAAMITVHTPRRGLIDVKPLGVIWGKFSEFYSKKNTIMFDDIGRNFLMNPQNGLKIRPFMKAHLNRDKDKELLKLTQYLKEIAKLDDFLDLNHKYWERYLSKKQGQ
UniProt Q9UBK9, whole entry, looked up: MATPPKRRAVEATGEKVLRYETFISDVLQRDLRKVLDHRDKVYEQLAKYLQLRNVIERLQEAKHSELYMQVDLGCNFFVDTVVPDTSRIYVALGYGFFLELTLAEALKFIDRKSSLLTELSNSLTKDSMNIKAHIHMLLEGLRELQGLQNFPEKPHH

What follows are targets tested with CC[C@@H]1C(=O)N(C)c2cnc(Nc3ccc(C(=O)NC4CCN(C)CC4)cc3OC)nc2N1C1CCCC1 (assay: log2 fold change, soluble protein after heating vs DMSO (PISA); higher = thermal stabilisation; K562 cells, 10 uM, 30 min; active = over 0.2 and 3.5 SD of the protein, either way, in both replicates (recomputed)).
Procedure, shortened: (§1)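 K562 cells at 2×10^6 cells/mL were treated for 30 min with 10 μM compound, and aliquots were heated for 3 min over 48°C-58°C before pooling. Extraction used PBS with 0.5% NP-40 at 4°C, and soluble protein was the supernatant after 21,000xg for 90 min, measured by TMTpro 16plex LC-MS/MS with channel sums equalised. Thermal stability values, relative to control samples and from duplicates, are log2 fold changes.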

Row | Target | log2 fold change
1 | UMPS (UniProt P11172) | inactive: -0.033
2 | USP9X (UniProt Q93008) | inactive: -0.108
3 | UBXN7 (UniProt O94888) | inactive: -0.029
4 | USP6NL isoform 2 (UniProt Q92738) | inactive: -0.173
5 | UBQLN1 (UniProt Q9UMX0) | inactive: -0.009
6 | USP22 (UniProt Q9UPT9) | inactive: -0.15
7 | UGT8 (UniProt Q16880) | inactive: 0.126
8 | VAMP2 (UniProt P63027) | inactive: 0.06
9 | UXS1 isoform 2 (UniProt Q8NBZ7) | inactive: 0.087
10 | VCP (UniProt P55072) | inactive: 0.005
11 | USP19 isoform 6 (UniProt O94966) | inactive: 0
12 | UTP15 (UniProt Q8TED0) | inactive: 0.194
13 | UBL4A (UniProt P11441) | inactive: -0.013
14 | UBE3C (UniProt Q15386) | inactive: -0.003
15 | VAMP4 (UniProt O75379) | inactive: 0.105
16 | UQCC1 (UniProt Q9NVA1) | inactive: 0.053
17 | UCKL1 (UniProt Q9NWZ5) | inactive: 0.036
18 | UQCRB (UniProt P14927) | inactive: 0.026
19 | VARS (UniProt P26640) | inactive: -0.05
20 | UBL5 (UniProt Q9BZL1) | inactive: -0.1

Row | Target | log2 fold change
21 | USP20 (UniProt Q9Y2K6) | inactive: -0.06
22 | USP30 (UniProt Q70CQ3) | inactive: -0.091
23 | UPRT (UniProt Q96BW1) | inactive: 0.019
24 | UPF3B (UniProt Q9BZI7) | inactive: 0.146
25 | VAMP7 (UniProt P51809) | inactive: -0.057
26 | UVRAG (UniProt Q9P2Y5) | inactive: 0.071
27 | UFSP2 (UniProt Q9NUQ7) | inactive: 0.026
28 | UQCRQ (UniProt O14949) | inactive: 0.014
29 | USP15 (UniProt Q9Y4E8) | inactive: -0.095
30 | UBQLN2 (UniProt Q9UHD9) | inactive: 0.056
31 | UGDH (UniProt O60701) | inactive: -0.041
32 | UQCRC2 (UniProt P22695) | inactive: -0.008
33 | UNC93B1 (UniProt Q9H1C4) | inactive: 0.006
34 | USP7 (UniProt Q93009) | inactive: -0.045
35 | UBQLN3 (UniProt Q9H347) | inactive: 0.016
36 | UCHL3 (UniProt P15374) | inactive: -0.052
37 | VBP1 (UniProt P61758) | inactive: 0.007
38 | UPF1 (UniProt Q92900) | inactive: 0.05
39 | UBLCP1 (UniProt Q8WVY7) | inactive: -0.191
40 | UXT isoform 2 (UniProt Q9UBK9) | inactive: 0.082

The targets below were run with CC[C@@H]1C(=O)N(C)c2cnc(Nc3ccc(C(=O)N[C@H]4CC[C@H](N5CCN(CC6CC6)CC5)CC4)cc3OC)nc2N1C(C)C [volasertib] in the same assay as above.
Procedure, shortened: as §1

Row | Target | log2 fold change
41 | UMPS (UniProt P11172) | inactive: 0.013
42 | USP9X (UniProt Q93008) | active: -0.382
43 | UBXN7 (UniProt O94888) | inactive: -0.107
44 | USP6NL isoform 2 (UniProt Q92738) | inactive: -0.237
45 | UBQLN1 (UniProt Q9UMX0) | inactive: 0.05
46 | USP22 (UniProt Q9UPT9) | inactive: -0.168
47 | UGT8 (UniProt Q16880) | inactive: 0.017
48 | VAMP2 (UniProt P63027) | inactive: -0.032
49 | UXS1 isoform 2 (UniProt Q8NBZ7) | inactive: 0.104
50 | VCP (UniProt P55072) | inactive: 0.081
51 | USP19 isoform 6 (UniProt O94966) | inactive: -0.112
52 | UTP15 (UniProt Q8TED0) | inactive: 0.328
53 | UBL4A (UniProt P11441) | inactive: -0.073
54 | UBE3C (UniProt Q15386) | inactive: -0.261
55 | VAMP4 (UniProt O75379) | inactive: 0.065
56 | UQCC1 (UniProt Q9NVA1) | inactive: 0.059
57 | UCKL1 (UniProt Q9NWZ5) | inactive: 0.033
58 | UQCRB (UniProt P14927) | inactive: 0.081
59 | VARS (UniProt P26640) | inactive: -0.28
60 | UBL5 (UniProt Q9BZL1) | inactive: -0.158

Row | Target | log2 fold change
61 | USP20 (UniProt Q9Y2K6) | inactive: -0.147
62 | USP30 (UniProt Q70CQ3) | inactive: -0.014
63 | UPRT (UniProt Q96BW1) | inactive: 0.056
64 | UPF3B (UniProt Q9BZI7) | inactive: 0.333
65 | VAMP7 (UniProt P51809) | inactive: -0.019
66 | UVRAG (UniProt Q9P2Y5) | inactive: -0.031
67 | UFSP2 (UniProt Q9NUQ7) | inactive: -0.128
68 | UQCRQ (UniProt O14949) | inactive: 0.067
69 | USP15 (UniProt Q9Y4E8) | active: -0.32
70 | UBQLN2 (UniProt Q9UHD9) | inactive: -0.005
71 | UGDH (UniProt O60701) | inactive: -0.128
72 | UQCRC2 (UniProt P22695) | inactive: 0.016
73 | UNC93B1 (UniProt Q9H1C4) | inactive: -0.144
74 | USP7 (UniProt Q93009) | inactive: -0.215
75 | UBQLN3 (UniProt Q9H347) | inactive: -0.175
76 | UCHL3 (UniProt P15374) | inactive: -0.114
77 | VBP1 (UniProt P61758) | inactive: 0.064
78 | UPF1 (UniProt Q92900) | inactive: -0.115
79 | UBLCP1 (UniProt Q8WVY7) | active: -0.356
80 | UXT isoform 2 (UniProt Q9UBK9) | inactive: 0.128
